Measured values taken from the supplement of paper PMC10849652.
This is one part of the list.

By UniProt entry, the sequences of proteins in these tests, tags left out. Where a name states a change or a piece, a line headed by the entry shows the natural chain unless it says otherwise.
UniProt Q9BW71: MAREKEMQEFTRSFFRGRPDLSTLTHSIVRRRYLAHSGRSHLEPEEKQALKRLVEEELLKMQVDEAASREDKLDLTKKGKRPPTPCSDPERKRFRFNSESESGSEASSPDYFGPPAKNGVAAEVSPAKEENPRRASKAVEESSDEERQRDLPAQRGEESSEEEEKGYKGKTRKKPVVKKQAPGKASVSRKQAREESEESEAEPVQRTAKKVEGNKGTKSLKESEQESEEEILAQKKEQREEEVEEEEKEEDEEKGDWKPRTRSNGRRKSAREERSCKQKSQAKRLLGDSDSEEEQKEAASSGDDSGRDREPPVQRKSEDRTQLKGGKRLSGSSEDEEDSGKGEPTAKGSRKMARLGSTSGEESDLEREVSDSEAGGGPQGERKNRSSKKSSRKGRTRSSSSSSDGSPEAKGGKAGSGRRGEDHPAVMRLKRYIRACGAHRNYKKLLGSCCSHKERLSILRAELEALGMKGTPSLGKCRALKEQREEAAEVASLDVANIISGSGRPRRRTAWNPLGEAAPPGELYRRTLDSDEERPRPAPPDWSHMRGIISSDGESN
UniProt Q9BQS7: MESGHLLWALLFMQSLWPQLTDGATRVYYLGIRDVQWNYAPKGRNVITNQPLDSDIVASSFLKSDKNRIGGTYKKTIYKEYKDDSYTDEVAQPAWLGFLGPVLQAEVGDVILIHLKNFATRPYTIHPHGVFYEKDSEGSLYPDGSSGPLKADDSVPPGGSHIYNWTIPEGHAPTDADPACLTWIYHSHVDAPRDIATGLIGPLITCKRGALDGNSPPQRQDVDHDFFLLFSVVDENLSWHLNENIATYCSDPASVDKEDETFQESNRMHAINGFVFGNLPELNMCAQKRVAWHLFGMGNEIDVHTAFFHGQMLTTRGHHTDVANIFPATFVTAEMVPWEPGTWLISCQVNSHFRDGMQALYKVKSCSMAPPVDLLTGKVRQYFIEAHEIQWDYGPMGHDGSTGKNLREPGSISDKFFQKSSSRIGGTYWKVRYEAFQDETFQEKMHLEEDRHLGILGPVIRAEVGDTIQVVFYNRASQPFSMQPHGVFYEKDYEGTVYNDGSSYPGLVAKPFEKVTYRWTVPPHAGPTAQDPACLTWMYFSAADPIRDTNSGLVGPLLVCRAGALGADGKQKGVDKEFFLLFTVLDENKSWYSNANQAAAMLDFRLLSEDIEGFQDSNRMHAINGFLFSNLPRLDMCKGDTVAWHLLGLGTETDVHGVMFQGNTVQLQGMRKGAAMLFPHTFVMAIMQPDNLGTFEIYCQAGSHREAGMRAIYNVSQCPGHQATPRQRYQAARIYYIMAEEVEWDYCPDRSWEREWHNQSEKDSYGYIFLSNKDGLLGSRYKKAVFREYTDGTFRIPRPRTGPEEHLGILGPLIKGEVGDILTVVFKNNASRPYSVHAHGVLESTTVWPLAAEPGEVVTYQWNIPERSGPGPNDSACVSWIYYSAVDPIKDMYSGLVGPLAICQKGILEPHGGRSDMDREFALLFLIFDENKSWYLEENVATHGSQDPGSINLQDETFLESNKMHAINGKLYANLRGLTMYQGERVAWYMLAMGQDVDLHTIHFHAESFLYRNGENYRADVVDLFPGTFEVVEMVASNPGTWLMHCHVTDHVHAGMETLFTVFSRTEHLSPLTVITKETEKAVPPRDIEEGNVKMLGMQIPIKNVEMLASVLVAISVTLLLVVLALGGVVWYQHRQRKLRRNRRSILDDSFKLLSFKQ
UniProt Q53GQ0: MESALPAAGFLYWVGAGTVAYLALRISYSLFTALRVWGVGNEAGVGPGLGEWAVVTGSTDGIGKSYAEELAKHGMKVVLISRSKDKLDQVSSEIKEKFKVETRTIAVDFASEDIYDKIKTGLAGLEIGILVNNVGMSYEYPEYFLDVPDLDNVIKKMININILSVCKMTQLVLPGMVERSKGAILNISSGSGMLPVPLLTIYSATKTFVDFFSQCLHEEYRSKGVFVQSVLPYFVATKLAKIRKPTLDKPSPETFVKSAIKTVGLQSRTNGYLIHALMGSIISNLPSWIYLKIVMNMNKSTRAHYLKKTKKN
UniProt P34932: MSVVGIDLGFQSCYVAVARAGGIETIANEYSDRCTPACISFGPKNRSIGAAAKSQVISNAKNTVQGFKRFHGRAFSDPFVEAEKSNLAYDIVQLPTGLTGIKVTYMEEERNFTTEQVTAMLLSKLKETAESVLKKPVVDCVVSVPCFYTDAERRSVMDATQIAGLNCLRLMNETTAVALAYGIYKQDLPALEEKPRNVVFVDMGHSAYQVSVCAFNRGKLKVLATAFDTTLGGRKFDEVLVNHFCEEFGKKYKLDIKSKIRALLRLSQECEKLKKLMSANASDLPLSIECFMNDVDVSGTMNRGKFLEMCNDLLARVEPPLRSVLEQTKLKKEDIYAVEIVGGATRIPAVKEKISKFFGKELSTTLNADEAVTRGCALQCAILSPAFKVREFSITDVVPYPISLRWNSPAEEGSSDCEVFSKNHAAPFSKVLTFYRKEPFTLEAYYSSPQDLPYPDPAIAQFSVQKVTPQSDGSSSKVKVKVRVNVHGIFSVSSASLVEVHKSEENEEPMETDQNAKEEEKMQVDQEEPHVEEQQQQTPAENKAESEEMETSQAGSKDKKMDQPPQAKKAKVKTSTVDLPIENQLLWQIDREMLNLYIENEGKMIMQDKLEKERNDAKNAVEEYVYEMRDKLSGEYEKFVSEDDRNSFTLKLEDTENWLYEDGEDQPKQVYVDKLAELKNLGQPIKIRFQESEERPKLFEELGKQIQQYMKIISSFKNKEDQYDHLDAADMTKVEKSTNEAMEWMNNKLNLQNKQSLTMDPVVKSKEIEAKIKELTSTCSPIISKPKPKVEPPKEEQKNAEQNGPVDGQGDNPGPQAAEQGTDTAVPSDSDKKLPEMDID
UniProt O43390: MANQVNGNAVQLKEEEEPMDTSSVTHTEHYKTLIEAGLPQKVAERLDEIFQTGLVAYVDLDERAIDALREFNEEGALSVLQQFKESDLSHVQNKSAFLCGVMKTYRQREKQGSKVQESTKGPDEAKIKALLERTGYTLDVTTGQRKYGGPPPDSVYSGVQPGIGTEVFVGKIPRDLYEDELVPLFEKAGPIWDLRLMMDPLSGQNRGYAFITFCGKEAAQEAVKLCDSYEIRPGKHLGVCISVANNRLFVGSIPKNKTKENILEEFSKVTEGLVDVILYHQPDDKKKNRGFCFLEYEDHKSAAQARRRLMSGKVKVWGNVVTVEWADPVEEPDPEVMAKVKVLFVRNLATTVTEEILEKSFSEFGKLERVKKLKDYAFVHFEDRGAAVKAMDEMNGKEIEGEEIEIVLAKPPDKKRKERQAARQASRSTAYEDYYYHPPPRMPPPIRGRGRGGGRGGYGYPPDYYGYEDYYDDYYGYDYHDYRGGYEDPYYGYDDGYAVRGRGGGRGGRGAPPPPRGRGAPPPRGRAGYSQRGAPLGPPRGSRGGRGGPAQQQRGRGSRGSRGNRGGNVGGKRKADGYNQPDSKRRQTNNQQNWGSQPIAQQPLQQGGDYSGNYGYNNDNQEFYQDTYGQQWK
UniProt P00492: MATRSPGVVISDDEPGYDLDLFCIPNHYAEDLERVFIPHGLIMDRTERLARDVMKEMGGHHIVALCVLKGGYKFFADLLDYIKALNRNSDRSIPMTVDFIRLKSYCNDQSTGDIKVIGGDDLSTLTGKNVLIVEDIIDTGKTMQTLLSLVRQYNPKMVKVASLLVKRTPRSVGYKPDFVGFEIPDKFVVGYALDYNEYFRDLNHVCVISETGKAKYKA
UniProt P31937: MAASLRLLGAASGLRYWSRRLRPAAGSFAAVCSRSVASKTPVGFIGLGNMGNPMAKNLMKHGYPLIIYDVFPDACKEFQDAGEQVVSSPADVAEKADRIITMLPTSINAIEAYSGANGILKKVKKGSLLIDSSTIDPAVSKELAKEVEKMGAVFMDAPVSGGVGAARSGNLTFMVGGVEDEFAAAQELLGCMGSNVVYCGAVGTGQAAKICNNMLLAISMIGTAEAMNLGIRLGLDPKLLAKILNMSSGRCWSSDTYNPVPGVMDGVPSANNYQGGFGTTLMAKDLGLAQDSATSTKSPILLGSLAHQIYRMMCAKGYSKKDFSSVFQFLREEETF
UniProt P09429: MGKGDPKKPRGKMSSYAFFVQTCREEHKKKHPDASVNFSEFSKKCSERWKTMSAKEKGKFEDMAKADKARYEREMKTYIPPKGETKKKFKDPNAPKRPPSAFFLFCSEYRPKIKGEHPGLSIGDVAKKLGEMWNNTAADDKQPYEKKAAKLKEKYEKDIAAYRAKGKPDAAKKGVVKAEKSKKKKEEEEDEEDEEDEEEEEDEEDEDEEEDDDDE
UniProt P31942: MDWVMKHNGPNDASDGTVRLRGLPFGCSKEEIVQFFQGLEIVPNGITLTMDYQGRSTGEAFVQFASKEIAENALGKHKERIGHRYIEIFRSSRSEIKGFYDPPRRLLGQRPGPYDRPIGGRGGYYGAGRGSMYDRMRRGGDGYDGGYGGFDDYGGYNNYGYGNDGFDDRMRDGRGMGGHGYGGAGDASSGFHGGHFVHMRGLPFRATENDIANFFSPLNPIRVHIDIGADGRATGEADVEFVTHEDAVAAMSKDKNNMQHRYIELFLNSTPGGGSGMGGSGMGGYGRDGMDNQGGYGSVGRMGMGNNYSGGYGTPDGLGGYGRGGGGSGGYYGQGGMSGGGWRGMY
UniProt Q9P0W2: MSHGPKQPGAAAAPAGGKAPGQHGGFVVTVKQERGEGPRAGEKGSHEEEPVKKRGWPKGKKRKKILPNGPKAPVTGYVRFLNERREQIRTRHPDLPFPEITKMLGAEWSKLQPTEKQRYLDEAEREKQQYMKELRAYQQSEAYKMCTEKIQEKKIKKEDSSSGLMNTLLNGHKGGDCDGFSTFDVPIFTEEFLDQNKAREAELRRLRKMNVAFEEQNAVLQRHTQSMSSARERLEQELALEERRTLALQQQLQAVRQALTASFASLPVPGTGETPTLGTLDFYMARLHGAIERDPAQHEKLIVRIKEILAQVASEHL
UniProt Q5GLZ8: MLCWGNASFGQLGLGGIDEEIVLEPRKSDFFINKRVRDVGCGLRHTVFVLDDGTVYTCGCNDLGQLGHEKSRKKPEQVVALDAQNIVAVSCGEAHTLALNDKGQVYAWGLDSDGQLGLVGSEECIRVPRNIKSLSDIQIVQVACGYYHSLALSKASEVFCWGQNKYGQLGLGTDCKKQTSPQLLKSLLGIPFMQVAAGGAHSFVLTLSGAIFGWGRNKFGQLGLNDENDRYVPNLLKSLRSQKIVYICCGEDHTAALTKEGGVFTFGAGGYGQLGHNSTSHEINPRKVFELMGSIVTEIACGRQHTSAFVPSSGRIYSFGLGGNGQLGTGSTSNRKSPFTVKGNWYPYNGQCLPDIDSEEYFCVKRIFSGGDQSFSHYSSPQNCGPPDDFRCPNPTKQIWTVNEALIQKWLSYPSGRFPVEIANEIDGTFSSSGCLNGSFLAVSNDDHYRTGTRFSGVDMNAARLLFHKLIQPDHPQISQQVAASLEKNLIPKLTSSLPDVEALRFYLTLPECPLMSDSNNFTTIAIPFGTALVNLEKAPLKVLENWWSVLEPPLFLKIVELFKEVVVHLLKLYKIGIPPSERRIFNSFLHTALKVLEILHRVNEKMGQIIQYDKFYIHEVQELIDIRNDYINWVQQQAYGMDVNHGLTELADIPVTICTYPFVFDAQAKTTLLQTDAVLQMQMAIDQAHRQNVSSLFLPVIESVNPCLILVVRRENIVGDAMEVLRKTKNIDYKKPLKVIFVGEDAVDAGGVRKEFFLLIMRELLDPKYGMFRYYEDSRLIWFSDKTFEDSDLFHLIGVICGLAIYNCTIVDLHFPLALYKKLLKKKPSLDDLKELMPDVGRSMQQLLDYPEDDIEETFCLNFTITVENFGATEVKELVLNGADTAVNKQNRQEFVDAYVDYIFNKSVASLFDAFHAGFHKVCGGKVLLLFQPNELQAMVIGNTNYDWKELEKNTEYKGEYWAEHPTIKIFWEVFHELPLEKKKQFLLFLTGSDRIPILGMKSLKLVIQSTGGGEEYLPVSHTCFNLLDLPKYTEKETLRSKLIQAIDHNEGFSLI
UniProt Q9NQE9: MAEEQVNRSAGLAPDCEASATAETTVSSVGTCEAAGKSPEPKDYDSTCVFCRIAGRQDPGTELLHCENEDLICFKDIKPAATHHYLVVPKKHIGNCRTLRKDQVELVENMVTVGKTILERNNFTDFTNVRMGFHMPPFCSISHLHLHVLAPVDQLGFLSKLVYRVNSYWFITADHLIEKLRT
UniProt Q99729: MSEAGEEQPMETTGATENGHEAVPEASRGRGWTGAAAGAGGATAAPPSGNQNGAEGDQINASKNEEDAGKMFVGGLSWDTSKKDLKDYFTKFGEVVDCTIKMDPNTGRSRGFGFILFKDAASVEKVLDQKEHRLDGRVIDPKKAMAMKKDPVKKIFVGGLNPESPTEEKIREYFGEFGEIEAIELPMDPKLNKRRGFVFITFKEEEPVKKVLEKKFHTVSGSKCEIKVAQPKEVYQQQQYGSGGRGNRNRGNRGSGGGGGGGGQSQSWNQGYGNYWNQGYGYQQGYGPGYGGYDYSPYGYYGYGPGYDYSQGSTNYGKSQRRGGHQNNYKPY

Tests used:
Experiment in all cases: log2 fold change, soluble protein after heating vs DMSO (PISA); higher = thermal stabilisation; K562 lysate, 10 uM; active = over 0.2 and 3.5 SD of the protein, either way, in both replicates (recomputed)
erlotinib = compound: C#Cc1cccc(Nc2ncnc3cc(OCCOC)c(OCCOC)cc23)c1 [erlotinib]
How it was run: (§1)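 Thermal stability, expressed as log-two fold change relative to solvent controls, is given from duplicates. Crude K562 extract in PBS pH 7.4 with 1 mM MgCl2, at 1 mg/mL protein, was treated with 10 μM compound for 30 min and heated in aliquots for 3 min across 48°C-58°C. After pooling, adjustment to 0.5% NP-40 at 4°C and centrifugation at 21,000xg for 90 min, supernatant protein was measured by TMTpro 16plex LC-MS/MS with channel sums equalised.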

[1] = compound: C/C(=N\NC(=O)C1=CC(=CC=C1)S(=O)(=O)N2CCOCC2)/C3=C(C=CC(=C3)Cl)O
How it was run: as §1

[2] = compound: C1=CC(=CC=C1C2=NC3=C(N2)C=C(C=C3)C(=O)N)OC4=CC=C(C=C4)Cl
How it was run: as §1

[3] = compound: C1=CC2=C(C=CC(=C2)/C=C\3/C(=O)NC(=NCC4=CC=CS4)S3)N=C1
How it was run: as §1

[4] = compound: C1=CC2=NC=CN=C2C=C1/C=C/3\C(=O)NC(=O)S3
How it was run: as §1

[5] = compound: C1=CC=C(C=C1)C2=NC(=C(N2)C3=CC=NC=C3)C4=CC(=C(C=C4)Cl)O
How it was run: as §1

[6] = compound: C1=CC=C2C(=C1)C3=NNC4=CC=CC(=C43)C2=O
How it was run: as §1

[7] = compound: C1CCN(C1)C(=O)NC2=CC=CC(=C2)NC3=NC=C(C(=N3)NCCC4=CN=CN4)Br
How it was run: as §1

[8] = compound: C1CN(CCC1(CC2=CC=C(C=C2)Cl)N)C3=NC=NC4=C3C=CN4
How it was run: as §1

IRAK-1-4 Inhibitor I = compound: C1COCCN1CCN2C3=CC=CC=C3N=C2NC(=O)C4=CC(=CC=C4)[N+](=O)[O-] [IRAK-1-4 Inhibitor I]
How it was run: as §1

ibrutinib = compound: C=CC(=O)N1CCC[C@@H](n2nc(-c3ccc(Oc4ccccc4)cc3)c3c(N)ncnc32)C1 [ibrutinib]
How it was run: as §1

[9] = compound: CC(=O)c1cnc2ccc(-c3cc(Cl)c(O)c(Cl)c3)nc2c1N[C@H]1CC[C@H](CN(C)C)CC1
How it was run: as §1

ralimetinib = compound: CC(C)(C)Cn1c(N)nc2ccc(-c3[nH]c(C(C)(C)C)nc3-c3ccc(F)cc3)nc21 [ralimetinib]
How it was run: as §1

[10] = compound: CC(C)(O)CC(=O)NCCn1ccc2ncnc(Nc3ccc(Oc4cccc(C(F)(F)F)c4)c(Cl)c3)c21
How it was run: as §1

[11] = compound: CC(C)C1=C2N=C(C=C(N2N=C1)NCC3=CC=CC=C3)NCCCCCCN
How it was run: as §1

[12] = compound: CC1=C(C(CC(=O)N1)C2=CC=C(C=C2)C(F)(F)F)C(=O)NC3=C(C=C4C(=C3)C=NN4)F
How it was run: as §1

[13] = compound: CC1=C(C2=C(C=C1)C(=O)C3=CC=CC=C3N2CCCN)C
How it was run: as §1

[14] = compound: CC1=C(C=C(C=C1)NC(=O)C2=CC(=CC=C2)C(C)(C)C#N)NC3=CC4=C(C=C3)N=CN(C4=O)C
How it was run: as §1

[15] = compound: CC1=C(C=C(C=C1)NC(=O)C2=CC(=CC=C2)N(C)C)NC(=O)C3=CC=C(C=C3)O
How it was run: as §1

[16] = compound: CC1=CC=C(C=C1)SC2=C3C=C(SC3=CN=C2)C(=O)N
How it was run: as §1

Measured: log2 fold change

HIRIP3 (UniProt Q9BW71)
inactive: erlotinib -0.033 | [1] -0.004 | [2] 0.045 | [3] -0.002 | [4] -0.008 | [5] -0.003 | [6] -0.023 | [7] -0.008 | [8] -0.009 | IRAK-1-4 Inhibitor I 0.001 | ibrutinib -0.037 | [9] -0.001 | ralimetinib 0.011 | [10] -0.014 | [11] -0.062 | [12] 0.006 | [13] -0.008 | [14] 0.061 | [15] 0.003 | [16] 0.004

HEPH isoform 3 (UniProt Q9BQS7)
inactive: erlotinib -0.026 | [1] -0.014 | [2] 0.037 | [3] 0.005 | [4] 0.002 | [5] -0.026 | [6] 0.002 | [7] -0.067 | [8] -0.044 | IRAK-1-4 Inhibitor I 0.005 | ibrutinib 0.018 | [9] -0.034 | ralimetinib -0.003 | [10] 0.014 | [11] -0.005 | [12] 0.002 | [13] -0.008 | [14] -0.003 | [15] -0.018 | [16] 0.054

HSD17B12 (UniProt Q53GQ0)
inactive: erlotinib -0.018 | [1] -0.026 | [2] -0.03 | [3] -0.018 | [4] 0.036 | [5] 0.006 | [6] -0.006 | [7] -0.022 | [8] 0.047 | IRAK-1-4 Inhibitor I 0.03 | ibrutinib -0.016 | [9] 0.004 | ralimetinib -0.026 | [10] 0.048 | [11] 0.069 | [12] 0 | [13] 0.024 | [14] -0.036 | [15] 0.049 | [16] 0.003

Reprinted from above (two entries):
HEPH isoform 3 (UniProt Q9BQS7)
inactive: erlotinib -0.026 | [1] -0.014 | [2] 0.037 | [3] 0.005 | [4] 0.002 | [5] -0.026 | [6] 0.002 | [7] -0.067 | [8] -0.044 | IRAK-1-4 Inhibitor I 0.005 | ibrutinib 0.018 | [9] -0.034 | ralimetinib -0.003 | [10] 0.014 | [11] -0.005 | [12] 0.002 | [13] -0.008 | [14] -0.003 | [15] -0.018 | [16] 0.054

HSD17B12 (UniProt Q53GQ0)
inactive: erlotinib -0.018 | [1] -0.026 | [2] -0.03 | [3] -0.018 | [4] 0.036 | [5] 0.006 | [6] -0.006 | [7] -0.022 | [8] 0.047 | IRAK-1-4 Inhibitor I 0.03 | ibrutinib -0.016 | [9] 0.004 | ralimetinib -0.026 | [10] 0.048 | [11] 0.069 | [12] 0 | [13] 0.024 | [14] -0.036 | [15] 0.049 | [16] 0.003

Further records

HNRNPK isoform 2 (UniProt P61978)
inactive: erlotinib -0.016 | [1] 0.03 | [2] -0.006 | [3] -0.036 | [4] -0.021 | [5] 0.018 | [6] -0.022 | [7] -0.003 | [8] -0.013 | IRAK-1-4 Inhibitor I 0.007 | ibrutinib 0.013 | [9] -0.01 | ralimetinib -0.026 | [10] 0 | [11] 0.015 | [12] -0.017 | [13] 0.012 | [14] 0.046 | [15] 0.005 | [16] -0.002

HSPA4 (UniProt P34932)
inactive: erlotinib -0.023 | [1] 0.012 | [2] 0.005 | [3] -0.007 | [4] -0.01 | [5] -0.003 | [6] -0.013 | [7] 0.007 | [8] -0.002 | IRAK-1-4 Inhibitor I -0.018 | ibrutinib -0.003 | [9] -0.009 | ralimetinib -0.004 | [10] 0.027 | [11] -0.012 | [12] -0.012 | [13] 0.004 | [14] -0.018 | [15] 0.009 | [16] 0.014

HNRNPR (UniProt O43390)
inactive: erlotinib 0.072 | [1] -0.261 | [2] -0.064 | [3] 0.005 | [4] 0.029 | [5] 0.001 | [6] 0.032 | [7] 0.009 | [8] 0.15 | IRAK-1-4 Inhibitor I 0.027 | ibrutinib -0.042 | [9] -0.288 | ralimetinib 0.006 | [10] 0.052 | [11] -0.12 | [12] 0.052 | [13] -0.004 | [14] 0.018 | [15] 0.008 | [16] 0.006

HPRT1 (UniProt P00492)
inactive: erlotinib -0.038 | [1] -0.096 | [2] -0.003 | [3] -0.022 | [4] -0.012 | [5] -0.014 | [6] -0.032 | [7] 0.002 | [8] -0.006 | IRAK-1-4 Inhibitor I -0.016 | ibrutinib 0.006 | [9] 0.025 | ralimetinib 0.009 | [10] 0.038 | [11] -0.035 | [12] 0.004 | [13] 0.009 | [14] -0.015 | [15] 0.018 | [16] 0.005

HECTD4 (UniProt J3KPF0)
inactive: erlotinib 0.076 | [1] -0.002 | [2] 0.035 | [3] -0.125 | [4] -0.02 | [5] 0.024 | [6] -0.055 | [7] -0.027 | [8] 0.01 | IRAK-1-4 Inhibitor I -0.009 | ibrutinib 0.017 | [9] -0.024 | ralimetinib 0.001 | [10] 0.007 | [11] -0.032 | [12] -0.028 | [13] -0.036 | [14] 0.032 | [15] 0.021 | [16] 0.009

HIBADH (UniProt P31937)
inactive: erlotinib 0.045 | [1] -0.01 | [2] 0 | [3] -0.032 | [4] 0.015 | [5] -0.07 | [6] -0.008 | [7] 0.029 | [8] 0.025 | IRAK-1-4 Inhibitor I 0 | ibrutinib 0.02 | [9] 0.006 | ralimetinib 0.028 | [10] -0.032 | [11] -0.014 | [12] -0.01 | [13] -0.002 | [14] 0.002 | [15] -0.02 | [16] -0.003

HMGB1 (UniProt P09429)
inactive: erlotinib -0.024 | [1] -0.017 | [2] -0.021 | [3] -0.03 | [4] -0.001 | [5] 0.035 | [6] 0.007 | [7] 0.012 | [8] 0.001 | IRAK-1-4 Inhibitor I -0.015 | ibrutinib -0.012 | [9] -0.013 | ralimetinib -0.102 | [10] 0.057 | [11] 0.032 | [12] -0.022 | [13] -0.002 | [14] 0.036 | [15] -0.077 | [16] -0.098

HNRNPH3 (UniProt P31942)
inactive: erlotinib 0.089 | [1] 0.044 | [2] 0.067 | [3] -0.009 | [4] 0.003 | [5] 0.003 | [6] 0.014 | [7] 0.032 | [8] -0.003 | IRAK-1-4 Inhibitor I 0.014 | ibrutinib 0.005 | [9] -0.037 | ralimetinib -0.077 | [10] 0.051 | [11] -0.006 | [12] 0.027 | [13] 0.02 | [14] 0 | [15] -0.096 | [16] 0.012

HMG20B (UniProt Q9P0W2)
inactive: erlotinib -0.002 | [1] 0.076 | [2] 0.058 | [3] 0.053 | [4] 0.016 | [5] 0.02 | [6] -0.112 | [7] -0.074 | [8] -0.006 | IRAK-1-4 Inhibitor I 0.017 | ibrutinib -0.029 | [9] -0.054 | ralimetinib -0.018 | [10] -0.03 | [11] -0.009 | [12] 0.001 | [13] -0.031 | [14] 0.009 | [15] 0.035 | [16] 0.015

HERC4 (UniProt Q5GLZ8)
inactive: erlotinib 0.002 | [1] 0.006 | [2] -0.007 | [3] 0.017 | [4] -0.029 | [5] -0.006 | [6] -0.015 | [7] -0.028 | [8] 0.024 | IRAK-1-4 Inhibitor I -0.021 | ibrutinib 0.021 | [9] -0.017 | ralimetinib 0.036 | [10] 0.005 | [11] 0.012 | [12] -0.006 | [13] 0.002 | [14] 0.004 | [15] -0.004 | [16] 0.016

HOMER1 (UniProt Q86YM7)
inactive: erlotinib -0.018 | [1] 0 | [2] 0.015 | [3] 0.016 | [4] 0.037 | [5] 0.001 | [6] 0.001 | [7] 0.086 | [8] 0.082 | IRAK-1-4 Inhibitor I 0.036 | ibrutinib -0.088 | [9] 0.04 | ralimetinib -0.02 | [10] -0.063 | [11] 0 | [12] 0.049 | [13] -0.042 | [14] -0.066 | [15] -0.047 | [16] 0.047

HINT3 (UniProt Q9NQE9)
inactive: erlotinib 0.034 | [1] -0.026 | [2] 0.04 | [3] 0.048 | [4] -0.038 | [5] 0.06 | [6] 0.076 | [7] 0.014 | [8] -0.046 | IRAK-1-4 Inhibitor I 0.026 | ibrutinib 0.047 | [9] -0.018 | ralimetinib 0.008 | [10] -0.068 | [11] 0.022 | [12] 0.021 | [13] 0.018 | [14] 0.061 | [15] 0.024 | [16] -0.017

HNRNPAB isoform 3 (UniProt Q99729)
inactive: erlotinib -0.032 | [1] -0.214 | [2] 0.017 | [3] -0.007 | [4] 0.002 | [5] -0.001 | [6] -0.012 | [7] 0.003 | [8] 0 | IRAK-1-4 Inhibitor I 0.009 | ibrutinib -0.029 | [9] -0.159 | ralimetinib -0.037 | [10] 0.006 | [11] -0.007 | [12] 0.055 | [13] -0.003 | [14] -0.01 | [15] -0.013 | [16] 0
